Data on 1 compound can be found in publication PMC11173765 (Molecules, 2024).

Each structure is given as a SMILES string.

In one assay the test system is SH-SY5Y. Nature of the assay: Cytotoxicity, resazurin viability assay in SH-SY5Y cells. The format is cell-based. The settings on record: Homo sapiens, 48 hrs treatment, mean ± SEM. How it is done: (§1) To gather preliminary data for later use evaluating antioxidant properties, we tested the cytotoxicity profiles of the novel compounds in human cell lines of neuroblastoma SH-SY5Y and hepatocarcinoma HUH-7, which are commonly used as neuronal models in similar studies.
(§2) Cytotoxic potency was measured using a resazurin assay (see Supplementary Materials). Cells were treated with increasing concentrations of each compound for 48 hours before the cell viability was assessed (Supplementary Materials). […]
(§3) Cell viability was evaluated using resazurin (SERVA Electrophoresis GmbH, Heidelberg, Germany) as previously described.
(§4) Briefly, a resazurin stock solution (440 μM, 10× in phosphate-buffered saline) was diluted in a culture medium to prepare a 44 μM working solution. Cells (5 × 10^3) were seeded in 96-well plates, incubated with 100µl of resazurin working solution, and fluorescence was measured after 1, 2, and 3 hrs. The background fluorescence of killed cells was subtracted, and viability was calculated relative to control cells treated with DMSO solvent (1%). The fluorescence was measured using an Envision 2104 Multi-label Microplate Reader (Perkin Elmer, Boston, MA, USA) and by setting the excitation wavelength at λ = 530 nm and emission wavelength at λ = 590 nm. […] Cytotoxicity was calculated as 100% minus the percentage of viability. […]
For orientation: Resazurin is reduced to fluorescent resorufin, in cell work by metabolically active cells.

Another assay deals with HUH-7. Kind of assay: Cytotoxicity, resazurin viability assay in HUH-7 cells. The format is cell-based. The settings on record: Homo sapiens, 48 hrs treatment, mean ± SEM. How it is done:
as §1, §2, §3, §4

On to `O=C(CCCN1CCC(O)(c2ccc(Cl)cc2)CC1)c1ccc(F)cc1` [HAL, haloperidol, reference compound], for which the IC50 – broadly, the midpoint of a concentration-inhibition curve – in the assay with SH-SY5Y is 41 ± 6 µM; in the assay on HUH-7, 19 ± 2 µM.
